Laboratory results published in patent US20150110792A1 (Biogen, published 2015).
These are yes or no findings as the source states them, for the method shown. Some results given as binding are weak or reduced against the parent protein; the word gives no strength.

Key:
[1] = target: T1, African Green monkey TIM-1 on the kidney cell line CCL-70 (African Green monkey) (UniProt O46598); experiment: staining of cells that carry the target, compared across the anti-human TIM-1 panel
T1 sequence (looked up): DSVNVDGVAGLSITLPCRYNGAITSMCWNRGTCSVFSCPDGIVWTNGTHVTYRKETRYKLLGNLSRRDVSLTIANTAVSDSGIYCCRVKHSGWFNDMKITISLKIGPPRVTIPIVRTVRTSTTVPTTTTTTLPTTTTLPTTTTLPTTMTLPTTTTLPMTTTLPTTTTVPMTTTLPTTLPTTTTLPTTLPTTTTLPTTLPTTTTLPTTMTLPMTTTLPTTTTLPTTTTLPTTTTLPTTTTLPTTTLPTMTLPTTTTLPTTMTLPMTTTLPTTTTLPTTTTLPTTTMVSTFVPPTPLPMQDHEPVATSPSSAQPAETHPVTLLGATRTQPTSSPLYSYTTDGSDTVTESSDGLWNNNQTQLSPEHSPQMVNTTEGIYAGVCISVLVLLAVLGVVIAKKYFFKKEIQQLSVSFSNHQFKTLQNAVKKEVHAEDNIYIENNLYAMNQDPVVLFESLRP

[2] = target: T1, African Green monkey TIM-1 on the kidney cell line CCL-70 (African Green monkey); experiment: flow cytometry on African Green monkey CCL-70 cells
[3] = target: T1, African Green monkey TIM-1 on the kidney cell line CCL-70 (African Green monkey); experiment: flow cytometry on CCL-70 African Green monkey kidney cells, histograms at four antibody concentrations

Measured: binding

B1: monoclonal antibody ARD5 (antibody, mouse IgG1, kappa, V domains shown)
VH: QVQLQQSGAELVRPGTSVKVSCKASGYVFTNYWIEWIKQRPGQGLEWIGVMNPGSGETTYNEKFKGKATLTADKSSSTAYMQLSSLTSVDSAVYFCARDHDRDYYAMDYWGQGTSVTVSS
VL: EIQMTQSPSSMSASLGDTITITCQATQDIFKNLNWYQQKPGKPPSLLIYYATELAEGVPSRFSGSGSGSDYSLTISNLESEDFAAYYCLQFFEFPFTFGSGTKLEMKR
notes: Murine IgG1/kappa hybridoma antibody (ATCC PTA-12195); also called ARD5.12; muARD5
binds: all assays above
